Test results taken from patent US5821070.
The exact form of at least one protein or probe is not confirmed. For some of these results: A negative result means that nothing was seen under these conditions. For some of these results: Where cells or extracts were used, other partners may take part.

Columns and labels:
[1] = system: E2F (partially purified, HeLa) (Homo sapiens); assay: competition with a labelled probe; conditions: mutated site stated not to bind E2F; purified native protein; variant of two E2F sites, wild type
[2] = system: GST-Ap9 (G protein beta-like); assay: EMSA; conditions: 200 ng; protein in a lysate after overexpression; protein details: GST; label: 32P (Klenow fill-in)
GST-Ap15 = assay: EMSA; conditions: 200 ng; protein in a lysate after overexpression; protein details: GST; label: 32P (Klenow fill-in)
[3] = system: E2F (partially purified, HeLa) (Homo sapiens); assay: EMSA; conditions: positive control; purified native protein; label: 32P (Klenow fill-in)

| Sequence | binding result [1] | binding result [2] | binding result (GST-Ap15) | binding result [3] |
| --- | --- | --- | --- | --- |
| TTTAGCGCGCGCTAAA (double strand) [mutated E2F sites] | no binding | – | – | – |
| TTTCGCGCGCGCGAAA (double strand) [two E2F sites, wild type] | – | no binding | no binding | binds |
